Test results published in the supplement of paper PMC4604168 (melanoma cell lines).
The list shows a part of the results. Many values rest on one well or one pass, so single values are uncertain.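 The apoptosis fraction was the count of cleaved-PARP antibody-stained nuclei relative to all DNA-stained nuclei, imaged in 1,536-well plates. Screening doses were set so most cells survived, and baseline and induced cleaved-PARP levels vary greatly across cell lines.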

system: CBRC034 (line from a melanoma biopsy); assay: cleaved PARP positive nuclei fraction relative to DMSO control; melanoma cells; higher = more apoptosis; conditions: library dose: low library concentration; 72 h

Compound	cleaved PARP positive nuclei fraction
CC1(C)CCC(c2ccc(Cl)cc2)=C(CN2CCN(c3ccc(C(=O)NS(=O)(=O)c4ccc(N[C@H](CCN5CCOCC5)CSc5ccccc5)c(S(=O)(=O)C(F)(F)F)c4)cc3)CC2)C1 + CNC(=O)c1cc(Oc2ccc(NC(=O)Nc3ccc(Cl)c(C(F)(F)F)c3)cc2)ccn1 [sorafenib] (first compound 0.4 µM, partner dose 0.4 µM)	158%
NC(=O)c1ccc(N(C(N)=O)c2c(F)cccc2F)nc1-c1ccc(F)cc1F + COc1ccc(C2=N[C@@H](c3ccc(Cl)cc3)[C@@H](c3ccc(Cl)cc3)N2C(=O)N2CCNC(=O)C2)c(OC(C)C)c1 [Nutlin-3] (first compound 0.4 µM, partner dose 0.1 µM)	66.3%
C[C@]1(O)C[C@@H](c2nc(-c3ccc4ccc(-c5ccccc5)nc4c3)c3c(N)nccn32)C1 + Cn1c(=O)n(-c2ccc(C(C)(C)C#N)cc2)c2c3cc(-c4cnc5ccccc5c4)ccc3ncc21 [NVP-BEZ235] (first compound 0.4 µM, partner dose 0.004 µM)	151%
CC1(C)CCC(c2ccc(Cl)cc2)=C(CN2CCN(c3ccc(C(=O)NS(=O)(=O)c4ccc(N[C@H](CCN5CCOCC5)CSc5ccccc5)c(S(=O)(=O)C(F)(F)F)c4)cc3)CC2)C1 + Nc1ncn([C@H]2C[C@H](O)[C@@H](CO)O2)c(=O)n1 [decitabine] (first compound 0.4 µM, partner dose 0.1 µM)	91.5%
